“Also recorded” adds a separate entry of the source. At least one structure is not confirmed: it was looked up by name or label, or the drawing left a doubt.
How the values were obtained:
EMT6 mouse model = assay: Vaccination (immunization) study with panobinostat-treated tumor cells and re-challenge; type: in vivo, BALB/c mice
MMTV-PyMT tumors = assay: Multiplex nanodose assay (MNA): implantable microdevice in tumor, CC3/MHC-I IHC and multiplex IHC adjacent to the drug-releasing well; type: in vivo, mouse; settings: for MHC-I on tumor cells: approximately 500 μm from the reservoir, outer border of the dying cells; for apoptosis by cleaved caspase-3 (CC3) in close proximity to the nanodosing well: local microdevice release, 3 days of exposure, vs PEG control
Text: Multiplex nanodose assay (MNA) system and translation to breast cancer patients: The illustrated microdevice (FIG. 6A) is a non-toxic 4×0.8 mm resin cylinder with eighteen 200 μm deep reservoirs, that are packed with active compounds (drugs or drug combinations) in solid form. The device is implanted and stays in the tumor tissue for up to 8 days; after which the tumor/tissue surrounding the device is harvested with the device in place and formalin fixed and paraffin embedded (FFPE). The tumor tissue is analyzed adjacent to each drug well using multiplex IHC (mIHC) with antibodies that interrogate one or more of cleaved caspase activity, epithelial, mesenchymal, endothelial status, as well as immune composition and activity. FIG. 6B Design of the ex vivo platform using primary tumor biopsy. In principle, the system is similar to that illustrated in FIG. 6A, except that the tissue core/biopsy is removed from the subject, placed into a maintaining device that supports the tumor core in a substantially vertical position, then the drug-dispensing nanodevice is inserted into the tumor sample ex vivo. The ex vivo tumor sample is then maintained in a supportive environment, as described herein, for a period of hours to days, to allow the microdevice delivered drugs to act on adjacent tissue in the ex vivo tumor sample. Analysis can be carried out similarly to that used for in vivo embodiments. FIG. 6C Image processing of the acquired phenotypes. Briefly, red staining is extracted by color deconvolution, the image is transformed to 8 bit format, and automatic threshold is applied. Two iterations of noise removal/dilation/closure and erosion are run using binary images. Fiji4 plugins and macro is used for automatized processing. Signal of individual markers are merged and the overlap is quantified.
(FIG. 8A). A single PyMT mouse was implanted at day 105 and stayed in situ for 3 days. Mean intensity value of the CC3 signal was measured adjacent to the drug releasing reservoir and was normalized to control PEG only loaded reservoir. FIG. 8B) List of antibodies used in mIHC procedure. #marks the antigen retrieval cycle in the mIHC procedure. The basic MNA panel is in pink and is composed of 15 markers. Alternative antibodies, present in yellow, were tested in later cycles thus are source for replacement or a 2nd slide can be stained. M5/114.12.2 clone is used for MHCii, HLAA for MHCi. FIG. 8C) mIHC was applied to panobinostat and doxorubicin reservoir. […] Blue is hematoxylin. […] Such macrophage population have strong positive prognostic value, especially when located in intratumoral nests vs. stroma (Kawai et al., 2008). […] Both molecules for antigen presentation, MHCii and MHCi, have increased presence in immunogenic vs. ‘cold’ tumors, inducing CTL infiltrate and predispose for checkpoint inhibitor response (Gibney et al., 2016). […] Next, in the MNA panel, we included two significant biomarkers, Galectin-3 and Neuropilin-1, that have strong prognostic and/or predictive value in other cancers but their functional role in BC is ambiguous or unknown, respectively. […] The galectin-3 marker is present both on tumor and nontumor, but exclusively on non-proliferating (non-GO) cells. Values are means±s.e.m. (n=3 regions of interest in one sample for (FIG. 8F) and n=3 drug loaded wells for (FIG. 8D); significance was calculated by a two-tailed t-test with equal variance. Of note, early microdevice studies validated each well to be a biological replicate due to heterogeneous nature of tumors in general (Jonas et al., Sci Transl. Med. 7, 284ra59, 2015). Microfluidic ex vivo platform maintains the viability of the primary mouse tumor tissue. […]

In the case of Cc1[nH]c2ccccc2c1CCNCc1ccc(/C=C/C(=O)NO)cc1 [panobinostat], the “immunogenicity of drug-induced tumor cell death” value (EMT6 mouse model) was “immunogenic”, the “MHC-I on tumor cells” value (MMTV-PyMT tumors; 3 days) was “relative enhancement of MHCi on tumor cells; also recorded: increase of MHC-I on tumor cells” and the “MHC-I on tumor cells” value (MMTV-PyMT tumors; 3 days, listed as Panobinostat) was “increases MHC-I expression on tumor cells”. The “proximity measures: cell type mediating the CC3 signal immediately at the well” value (MMTV-PyMT tumors; 3 days, threshold distance 100 μm, early measures) was “mediated by cytotoxic neutrophils”, the “apoptosis by cleaved caspase-3 (CC3) in close proximity to the nanodosing well” value (MMTV-PyMT tumors) was “significantly increased apoptosis; also recorded: induce apoptosis” and the “apoptosis by cleaved caspase-3 (CC3) in close proximity to the nanodosing well” value (MMTV-PyMT tumors; listed as Panobinostat) was “mediates effective tumor killing”. The “Galectin-3 and Neuropilin-1 levels vs drug-induced immune cell recruitment” value (MMTV-PyMT tumors; mIHC at the reservoir) was “positively correlated” and the “infiltration of professional antigen presenting cells (F4/80+MHCii+ macrophages) at the reservoir” value (MMTV-PyMT tumors; mIHC, 3 days) was “presence of a very small population of F4/80+MHCii+ macrophages; also recorded: infiltration of a small population of professional antigen presenting cells”.

From patent US11841360B1, “Systems, devices, and methods for ex vivo assessment of responses to multiple therapeutic agents” (Oregon Health & Science University, priority 2018, dated 2023)
